# What was measured:
# Format in all cases: functional, cell-based
# [1] = Cytotoxicity against human PC3-TxR cells after 72 hrs by MTS assay
# Method in brief: (§1)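 Prostate lines grown in RPMI 1640 with 10% FBS. […] Cells treated 72 h at 10 concentrations, 0.03 nM–1 μM, n = 4. MTS read at 490 nm; IC50 by nonlinear regression. RI = resistant IC50 / parental IC50.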
# DU-145 = assay: Cytotoxicity against human DU145 cells after 72 hrs by MTS assay; details: DU-145, 72 h; method in brief: as §1
# PC-3 = assay: Cytotoxicity against human PC3 cells after 72 hrs by MTS assay; details: PC-3, 72 h; method in brief: as §1
smiles,measurement,setting,value
COc1cc2c(c(OC)c1OC)-c1ccc(OC)c(=O)cc1[C@@H](NC(C)=O)CC2 [COLCHICINE],IC50,[1],0.0281 µM
same,IC50,DU-145,0.0257 µM
same,IC50,PC-3,0.008 µM
